Data: US20220339270A1
These are yes or no findings as the source states them, for the method shown. Some results given as binding are weak or reduced against the parent protein; the word gives no strength. For some assays here: Tags and fused reporters may be left off the sequences shown.

Protein sequences, listed by entry. Tags and fused reporters are not part of them. Lines headed by an entry give the natural chain unless they say otherwise; changes in a name come on top.
UniProt P10636: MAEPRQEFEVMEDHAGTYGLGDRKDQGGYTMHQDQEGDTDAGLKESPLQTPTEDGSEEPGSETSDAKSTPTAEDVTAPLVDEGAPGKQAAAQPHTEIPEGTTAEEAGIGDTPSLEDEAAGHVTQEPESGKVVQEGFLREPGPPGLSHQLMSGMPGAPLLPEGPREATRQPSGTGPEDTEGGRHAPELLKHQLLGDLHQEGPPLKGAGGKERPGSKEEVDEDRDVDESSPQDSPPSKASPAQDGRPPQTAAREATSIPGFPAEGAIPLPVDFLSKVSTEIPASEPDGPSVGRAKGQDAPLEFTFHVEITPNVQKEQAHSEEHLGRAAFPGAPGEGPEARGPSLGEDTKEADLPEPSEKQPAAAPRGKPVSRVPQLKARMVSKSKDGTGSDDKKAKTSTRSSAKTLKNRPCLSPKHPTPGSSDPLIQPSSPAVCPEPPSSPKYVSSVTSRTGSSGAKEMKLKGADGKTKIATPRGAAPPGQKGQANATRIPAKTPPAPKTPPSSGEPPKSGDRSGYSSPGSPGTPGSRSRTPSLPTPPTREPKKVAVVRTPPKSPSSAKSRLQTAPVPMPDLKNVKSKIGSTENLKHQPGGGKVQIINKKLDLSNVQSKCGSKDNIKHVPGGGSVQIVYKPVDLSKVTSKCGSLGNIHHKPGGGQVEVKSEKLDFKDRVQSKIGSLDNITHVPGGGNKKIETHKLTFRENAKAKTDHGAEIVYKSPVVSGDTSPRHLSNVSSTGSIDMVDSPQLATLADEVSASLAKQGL

Experiments:
[1] = biological target: wild-type tau (441 amino acids; tau441; NP_005901.2) (human) (UniProt P10636); assay: wild-type tau ELISA, 293 cell supernatant
[2] = biological target: extracellular tau in the form of paired helical filaments (ePHF) (UniProt P10636); assay: PHF tau ELISA, 293 cell supernatant
[3] = biological target: extracellular tau in the form of paired helical filaments (ePHF) (UniProt P10636); assay: ePHF tau ELISA, Expi293 supernatant
[4] = biological target: extracellular tau in the form of paired helical filaments (ePHF) (UniProt P10636); assay: PHF-tau ELISA, 293 cell supernatant
[5] = biological target: extracellular tau in the form of paired helical filaments (ePHF) (UniProt P10636); assay: PHF Tau ELISA
[6] = biological target: extracellular tau in the form of paired helical filaments (ePHF) (UniProt P10636); assay: ePHF tau ELISA, control antibody
[7] = biological target: extracellular tau in the form of paired helical filaments (ePHF) (UniProt P10636); assay: PHF-tau ELISA
[8] = biological target: extracellular tau in the form of paired helical filaments (ePHF) (UniProt P10636); assay: ELISA

B1: IPN002 scFv-HA expressed from TAU_ITR138 (CAG, HL, (G4S)2) (scFv)
scFv: EVHLVESGGALVKPGGSLKLSCAASGFSFSKYGMSWVRQTPDKRLEWVATISSSGSRTYYPDSVKGQFTISRDNAKNTLYLQMSSLKSEDTAMYYCSISWDGAMDYWGQGTSVTVSSGGGGSGGGGSDVLMTQTPLSLPVSLGDQASISCKSSQSIVHSNGNTYLEWYLQKPGQSPKLLVYKVSNRFSGVPDRFSGSGSGTDFTLKISRVEAEDLGTYYCFQGSLVPWAFGGGTKLEIK
- binding [1]: binds
- binding [2]: binds

B2: IPN002 antibody expressed from viral genome construct IPN002LF2AH (TAU_ITR84) (antibody, V domains shown)
VH: EVHLVESGGALVKPGGSLKLSCAASGFSFSKYGMSWVRQTPDKRLEWVATISSSGSRTYYPDSVKGQFTISRDNAKNTLYLQMSSLKSEDTAMYYCSISWDGAMDYWGQGTSVTVSS
VL: DVLMTQTPLSLPVSLGDQASISCKSSQSIVHSNGNTYLEWYLQKPGQSPKLLVYKVSNRFSGVPDRFSGSGSGTDFTLKISRVEAEDLGTYYCFQGSLVPWAFGGGTKLEIK
- binding [3]: binds

B3: IPN002 F(ab')2_hIgG3_3hinge expressed from TAU_ITR122 (CBA, hGbin, HF.T2AL) (F(ab')2)
VH: EVHLVESGGALVKPGGSLKLSCAASGFSFSKYGMSWVRQTPDKRLEWVATISSSGSRTYYPDSVKGQFTISRDNAKNTLYLQMSSLKSEDTAMYYCSISWDGAMDYWGQGTSVTVSS
VL: DVLMTQTPLSLPVSLGDQASISCKSSQSIVHSNGNTYLEWYLQKPGQSPKLLVYKVSNRFSGVPDRFSGSGSGTDFTLKISRVEAEDLGTYYCFQGSLVPWAFGGGTKLEIK
- binding [4]: binds

B4: IPN002 F(ab')2_hIgG3_2hinge expressed from TAU_ITR121 (CBA, hGbin, HF.T2AL) (F(ab')2)
VH: EVHLVESGGALVKPGGSLKLSCAASGFSFSKYGMSWVRQTPDKRLEWVATISSSGSRTYYPDSVKGQFTISRDNAKNTLYLQMSSLKSEDTAMYYCSISWDGAMDYWGQGTSVTVSS
VL: DVLMTQTPLSLPVSLGDQASISCKSSQSIVHSNGNTYLEWYLQKPGQSPKLLVYKVSNRFSGVPDRFSGSGSGTDFTLKISRVEAEDLGTYYCFQGSLVPWAFGGGTKLEIK
- binding [1]: binds
- binding [4]: binds

B5: IPN002 Fab expressed from TAU_ITR127 (CAG, HF.T2AL) (Fab, V domains shown)
VH: EVHLVESGGALVKPGGSLKLSCAASGFSFSKYGMSWVRQTPDKRLEWVATISSSGSRTYYPDSVKGQFTISRDNAKNTLYLQMSSLKSEDTAMYYCSISWDGAMDYWGQGTSVTVSS
VL: DVLMTQTPLSLPVSLGDQASISCKSSQSIVHSNGNTYLEWYLQKPGQSPKLLVYKVSNRFSGVPDRFSGSGSGTDFTLKISRVEAEDLGTYYCFQGSLVPWAFGGGTKLEIK
- binding [5]: binds
- binding [4]: binds

B6: IPN002 Fab_ext expressed from TAU_ITR128 (CAG, HF.T2AL) (Fab, V domains shown)
VH: EVHLVESGGALVKPGGSLKLSCAASGFSFSKYGMSWVRQTPDKRLEWVATISSSGSRTYYPDSVKGQFTISRDNAKNTLYLQMSSLKSEDTAMYYCSISWDGAMDYWGQGTSVTVSS
VL: DVLMTQTPLSLPVSLGDQASISCKSSQSIVHSNGNTYLEWYLQKPGQSPKLLVYKVSNRFSGVPDRFSGSGSGTDFTLKISRVEAEDLGTYYCFQGSLVPWAFGGGTKLEIK
- binding [5]: binds
- binding [4]: binds

B7: IPN002 Fab expressed from TAU_ITR123 (CBA, hGbin, HF.T2AL) (Fab, V domains shown)
VH: EVHLVESGGALVKPGGSLKLSCAASGFSFSKYGMSWVRQTPDKRLEWVATISSSGSRTYYPDSVKGQFTISRDNAKNTLYLQMSSLKSEDTAMYYCSISWDGAMDYWGQGTSVTVSS
VL: DVLMTQTPLSLPVSLGDQASISCKSSQSIVHSNGNTYLEWYLQKPGQSPKLLVYKVSNRFSGVPDRFSGSGSGTDFTLKISRVEAEDLGTYYCFQGSLVPWAFGGGTKLEIK
- binding [5]: binds
- binding [4]: binds

B8: IPN002 Fab_ext expressed from TAU_ITR129 (CBA, hGbin, LT2AH) (Fab, V domains shown)
VH: EVHLVESGGALVKPGGSLKLSCAASGFSFSKYGMSWVRQTPDKRLEWVATISSSGSRTYYPDSVKGQFTISRDNAKNTLYLQMSSLKSEDTAMYYCSISWDGAMDYWGQGTSVTVSS
VL: DVLMTQTPLSLPVSLGDQASISCKSSQSIVHSNGNTYLEWYLQKPGQSPKLLVYKVSNRFSGVPDRFSGSGSGTDFTLKISRVEAEDLGTYYCFQGSLVPWAFGGGTKLEIK
- binding [5]: binds
- binding [4]: binds

B9: IPN002 Fab_ext expressed from TAU_ITR124 (CBA, hGbin, HF.T2AL) (Fab, V domains shown)
VH: EVHLVESGGALVKPGGSLKLSCAASGFSFSKYGMSWVRQTPDKRLEWVATISSSGSRTYYPDSVKGQFTISRDNAKNTLYLQMSSLKSEDTAMYYCSISWDGAMDYWGQGTSVTVSS
VL: DVLMTQTPLSLPVSLGDQASISCKSSQSIVHSNGNTYLEWYLQKPGQSPKLLVYKVSNRFSGVPDRFSGSGSGTDFTLKISRVEAEDLGTYYCFQGSLVPWAFGGGTKLEIK
- binding [5]: binds
- binding [4]: binds

B10: IPN002 Fab_ext expressed from TAU_ITR130 (CAG, LT2AH) (Fab, V domains shown)
VH: EVHLVESGGALVKPGGSLKLSCAASGFSFSKYGMSWVRQTPDKRLEWVATISSSGSRTYYPDSVKGQFTISRDNAKNTLYLQMSSLKSEDTAMYYCSISWDGAMDYWGQGTSVTVSS
VL: DVLMTQTPLSLPVSLGDQASISCKSSQSIVHSNGNTYLEWYLQKPGQSPKLLVYKVSNRFSGVPDRFSGSGSGTDFTLKISRVEAEDLGTYYCFQGSLVPWAFGGGTKLEIK
- binding [5]: binds
- binding [4]: binds

B11: anti-tau antibody IPN002 (control antibody) (antibody, V domains shown)
VH: EVHLVESGGALVKPGGSLKLSCAASGFSFSKYGMSWVRQTPDKRLEWVATISSSGSRTYYPDSVKGQFTISRDNAKNTLYLQMSSLKSEDTAMYYCSISWDGAMDYWGQGTSVTVSS
VL: DVLMTQTPLSLPVSLGDQASISCKSSQSIVHSNGNTYLEWYLQKPGQSPKLLVYKVSNRFSGVPDRFSGSGSGTDFTLKISRVEAEDLGTYYCFQGSLVPWAFGGGTKLEIK
- binding [6]: binds
- binding [7]: binds

B12: IPN002 antibody expressed from viral genome construct IPN002HF.F2AL (TAU_ITR77) (antibody, V domains shown)
VH: EVHLVESGGALVKPGGSLKLSCAASGFSFSKYGMSWVRQTPDKRLEWVATISSSGSRTYYPDSVKGQFTISRDNAKNTLYLQMSSLKSEDTAMYYCSISWDGAMDYWGQGTSVTVSS
VL: DVLMTQTPLSLPVSLGDQASISCKSSQSIVHSNGNTYLEWYLQKPGQSPKLLVYKVSNRFSGVPDRFSGSGSGTDFTLKISRVEAEDLGTYYCFQGSLVPWAFGGGTKLEIK
- binding [3]: binds

B13: full C10.2 antibody (antibody, V domains shown)
VH: QVQLQQSDAELVKPGASVKISCKASGYTFTDRTIHWVKQRPEQGLEWIGYIYPGDGSTKYNENFKGKATLTADKSSSTAYMQLNSLTSEDSAVYFCARRGAMDYWGQGTSVTVSS
VL: DVQMIQSPSSLSASLGDIVTMTCQASQGTSINLNWFQQKPGKAPKLLIYGASNLEDGVPSRFSGSRYGTDFTLTISSLEDEDMATYFCLQHTYLPFTFGSGTKLEIK
- binding [8]: binds

B14: C10.2 Fab fragments (Fab, V domains shown)
VH: QVQLQQSDAELVKPGASVKISCKASGYTFTDRTIHWVKQRPEQGLEWIGYIYPGDGSTKYNENFKGKATLTADKSSSTAYMQLNSLTSEDSAVYFCARRGAMDYWGQGTSVTVSS
VL: DVQMIQSPSSLSASLGDIVTMTCQASQGTSINLNWFQQKPGKAPKLLIYGASNLEDGVPSRFSGSRYGTDFTLTISSLEDEDMATYFCLQHTYLPFTFGSGTKLEIK
- binding [8]: binds
